PubChem BioAssay AID1347426 (Functional Genomics Laboratory (NCATS/FGL), 2020)
Out of some 31,000 sequences screened, about 1,400 (4.5%) were called active.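 How the source made its calls: active means median seed-adjusted z-score above 1 or below -1; inactive means the rest.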 This is one part of the list.

experiment: Novel Modifiers of Survival Motor Neuron (SMN) Protein: Gene Identification via Genome-wide siRNA Screen; details: HEK293T SMN2-luciferase reporter, siRNA knockdown, 72 h; actives lie on both sides;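 further: luminescence tracks full-length SMN protein made from the SMN2 reporter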
How it was run: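 siRNA screen, 10418 genes ×3 siRNAs; 1 pmol/well, lipid reverse transfection into HEK293T SMN2-luc reporter line. 72 h, 37 °C, 5% CO2; ONE-Glo readout. Data: neg-ctrl normalized, log10, MAD; hit = MAD >1.0 or < -1.0.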

Sequence	median seed-adjusted z-score
AAGACACUUUGGUUCGUGATT against ZNF80	inactive: 0.906
GCAAGUACCAAGUGGAGUATT against TMEM11	inactive: -0.00121
GCACCUAUGAGGAAAAUGATT against LAMB2	active: 1.12
GCAUUCAUUUGAUGAUCGATT against DOCK10	inactive: -0.201
CCUUUGACCUGAAGAACAATT against CD4	inactive: -0.566
GGCUGAGAACAGUUCUAGATT against ZNF775	inactive: 0.00364
GGAUAUGAUGUUUCAGCUUTT against CDK6	inactive: 0
GACUUUUACUACACUGAGATT against ZNF704	inactive: -0.15
CAUACAAUACCAAAGUGUATT against LOXL2	inactive: 0.177
GACUGUUCACGCAAGUUAATT against METAP2	inactive: 0.325
CGAGGUUACACGUUACGAATT against DOCK1	inactive: -0.235
GAAGUUCGAGGUGAAGAAGTT against MAFA	inactive: 0.424
GAAGCUGUGAGAUAGAGAATT against LCN8	inactive: 0.112
CCCUUGUCCUCAAGAUUUUTT against DMRT2	inactive: -0.344
GUGCCUUGCUAUUCUAAGATT against NEUROD1	inactive: 0
CUGUAGUAACUGCAAGCAATT against FHL1	inactive: 0.574
AGAGCUCACUCGUCCCAAUTT against CXCL16	inactive: 0.201
CCCACGAGUUUAGUUCAAATT against PIAS2	inactive: -0.096
CGAACGAUUUCCCAAGUUATT against NXF1	active: -4.46
GCAUGGUUGUGCCUUUAUUTT against MFSD9	inactive: 0.36
ACCGUAUUCUUCAUCCUAATT against CCL20	inactive: -0.204
CAAUCUACCUAAUCAAGCUTT against ROD1	inactive: 0.42
GAACUCAUGUCCGACAUAATT against STX1A	inactive: 0
GGAUUAGUGAUUAUAUGGATT against NPAS3	inactive: -0.0316
CCAGGAACCUAAGAGCGCATT against DDX11	inactive: 0
AGAUAUAAGGCUCAGAAAATT against ADIPOR2	inactive: -0.614
CCCUCGUUACUUUGGGUAATT against PDK3	inactive: 0.232

Some of the entries above, reformatted.
Sequence | median seed-adjusted z-score
AGAUAUAAGGCUCAGAAAATT against ADIPOR2 | inactive: -0.614
CCCUCGUUACUUUGGGUAATT against PDK3 | inactive: 0.232

Carrying on.

Sequence	median seed-adjusted z-score
CCACUAUGGAGACUGAAAATT against TP53RK	inactive: 0
UGGUGAUGAUUGGAAUGUUTT against KCNE2	inactive: -0.666
CCAUUACCUUUCUAAGUAUTT against ZADH2	inactive: -0.47
GCAGUGUCUCGAGAACUUATT against PDE6D	inactive: 0
GGGCACCGAUGAGAUCAAATT against PIAS1	inactive: -0.0367
AGAGUAAGAUAGAAGACCATT against TCF3	inactive: -0.0126
GCUACGCAAAAUACAAUAATT against CPA3	inactive: 0.192
GCUUAUGCGUAGAUCCUUUTT against SMYD4	inactive: 0.272
AGAGCCUGCGGACCACUAUTT against TRIM62	inactive: -0.000231
GAUGUACUCCGUUAACAAATT against BIRC8	inactive: 0.0184
GGUAAUUUGUUCUUGGUGATT against MTNR1B	inactive: -0.393
CCUUCUCAAUGGAUUCCAATT against VN1R1	inactive: 0.531
GCACAAUACUGUGACCGUATT against USP24	inactive: 0.101
UGCUUGCCGCUACCUGUAATT against SP8	inactive: -0.215
GCCUUAUUCUGAUCAUGGATT against BOLL	inactive: -0.072
GGAUGCACAUUAUUGAAGATT against SEMA4G	inactive: 0.188
GGACAUCACUUGUUGCACUTT against HTR1B	inactive: -0.221
GGGUCUUACCGAUGUCUGATT against ERMAP	inactive: -0.276
GAAGGGUGCUGAACGAGGATT against DNAJB13	inactive: 0.092
GAAUGCCUCAGGAUCUAGATT against FOXO4	inactive: -0.0576
CAAGAUCUAUGAUAAGGAUTT against GUCA1B	inactive: 0
AGUCAAAGGUGGAAGACGATT against GBX2	inactive: -0.442
CUCUUUAUGUGAUCCUGUATT against PLXNB3	inactive: -0.0652
CCAAACCACUAUGAACUGATT against TTLL1	inactive: 0.322
GUAUAAGUAUAGUGGAAAATT against PLEKHF2	inactive: 0.0967
CGCGAUUUGGAGAUCCUUATT against SLIT3	inactive: -0.453
AGUACAACAGUGAAUGGAATT against MRGPRX2	inactive: 0.0476
